{"source": "patent US10363298B2", "about": "“Immunomodulatory compounds” (priority 2014, dated 2019)", "assay_in_all_cases": "Surface plasmon resonance (Biacore T-100): binding to immobilized multivalent, biotinylated α-2,3-sialyllactose-PAA", "details_in_all_cases": "global fit model (Langmuir binding)", "key": {"[1]": {"target": "VcCBMTD (printed VcCBMT); CBM of V. cholerae NanH sialidase, residues 25-216, SEQ ID NO: 2, fused to trimerisation domain of P. aeruginosa pseudaminidase, residu (Vibrio cholerae, UniProt A5F7A4)"}, "[2]": {"target": "Vc2CBMTD (printed Vc2CBM); two tandem CBMs of V. cholerae NanH sialidase, residues 25-216, SEQ ID NO: 2, fused to trimerisation domain of P. aeruginosa pseudamin (Vibrio cholerae serotype O1, UniProt A5F7A4)"}, "[3]": {"target": "Vc4CBM (tandem-repeat multivalent protein of four sialic acid binding domains of V. cholerae NanH sialidase, residues 25-216, SEQ ID NO: 2) (Vibrio cholerae, UniProt A5F7A4)"}}, "note": "For at least one compound, name, drawing or mass did not settle the structure."}
{"smiles": "CC(=O)N[C@H]1[C@H]([C@H](O)[C@H](O)CO)O[C@@](O[C@H]2[C@@H](O)[C@@H](CO)O[C@@H](O[C@H]3[C@H](O)[C@@H](O)C(O)O[C@@H]3CO)[C@@H]2O)(C(=O)O)C[C@@H]1O", "note": "(stereo partly drawn) [α-2,3-sialyllactose]", "values": [{"measurement": "Kd", "setting": "[1]; 15 °C", "result": 1.65, "unit": "nM"}, {"measurement": "Kd", "setting": "[1]; 25 °C", "result": 1.71, "unit": "nM"}, {"measurement": "Kd", "setting": "[1]; 37 °C", "result": 5.15, "unit": "nM"}, {"measurement": "Kd", "setting": "[2]; 15 °C", "result": 0.18, "unit": "nM"}, {"measurement": "Kd", "setting": "[2]; 37 °C", "result": 0.24, "unit": "nM"}, {"measurement": "Kd", "setting": "[3]; 15 °C", "result": 0.94, "unit": "nM"}, {"measurement": "Kd", "setting": "[3]; 25 °C", "result": 0.45, "unit": "nM"}, {"measurement": "Kd", "setting": "[3]; 37 °C", "result": 1.82, "unit": "nM"}]}
